Laboratory results reported in PubChem BioAssay AID590 (National Center for Advancing Translational Sciences (NCATS), 2007).
“And” between values parts separate entries of the source, which are not always exact repeats. Identical values can stand only once. Hit rate of the full screen: of about 59,000 compounds, about 6,500 (11%) were called active. The inconclusive results got no clear call from the source; some entries with a clear call stand among them for comparison. No stated cut-off is given here; in the data, active means max dye-equivalent concentration above about 10 nM; inconclusive means mostly about 1.1 nM to 9.6 nM; inactive means weaker than that.

Assay: qHTS Assay for Spectroscopic Profiling in A350 Spectral Region
Settings: Compound autofluorescence, 340/450 nm, Alexa 350 dye-equivalents; hits give high values

**Q.** With CCOc1cc2[nH]c(=S)n(CC3CCCN3CC)c(=O)c2cc1OCC (stereo not given) as the compound, how does the max dye-equivalent concentration read?
**A.** inconclusive: 3.7e-09 M

**Q.** Which max dye-equivalent concentration does the source give for C1CCN(c2nc(N3CCCCC3)nc(N3CCNCC3)n2)CC1 here?
**A.** inconclusive: 8.1e-09 M

**Q.** For CCN1CCN(c2ncc(C(=O)N3CCN(c4ccccc4OC)CC3)c3ccccc23)CC1, which max dye-equivalent concentration is on record?
**A.** inconclusive: 1.4e-09 M

**Q.** For C=CCNc1nc(NCc2ccccc2)c(C#N)c2c1CN(C)CC2, which max dye-equivalent concentration is on record?
**A.** active: 1.2e-07 M

**Q.** With CC(C)Cc1nc2oc3c(NCc4cccnc4)ncnc3c2c2c1CCC2 as the compound, how does the max dye-equivalent concentration read?
**A.** inconclusive: 1.2e-09 M

**Q.** Which max dye-equivalent concentration does the source give for CCOc1cc(S(=O)(=O)Nc2ccc(Cl)cn2)ccc1F here?
**A.** inconclusive: 7.8e-09 M

**Q.** With Cc1nnc(NC(=O)CCC(=O)NCc2ccco2)s1 as the compound, how does the max dye-equivalent concentration read?
**A.** inconclusive: 1.1e-09 M

**Q.** With c1ccc(-n2c(-c3ccncc3)nnc2-c2ccco2)cc1 as the compound, how does the max dye-equivalent concentration read?
**A.** inactive

**Q.** With COCc1nc(-c2ccc(-c3ccc(C)cc3)nc2OC)no1 as the compound, how does the max dye-equivalent concentration read?
**A.** inconclusive: 9.7e-09 M

**Q.** For N[C@H](C(=O)N[C@@H]1C(=O)N2C(C(=O)O)=C(Cl)CS[C@@H]12)c1ccccc1, which max dye-equivalent concentration is on record?
**A.** inconclusive: 5e-09 M and inconclusive: 7.4e-09 M

**Q.** With COc1cccc(-c2ccc3ncnc(NCCc4c[nH]c5ccc(OC)cc45)c3c2)c1 as the compound, how does the max dye-equivalent concentration read?
**A.** inactive

**Q.** For COc1ccc(-c2nc3cnc(N4CCNCC4)nc3n(Cc3ccc(F)cc3)c2=O)cc1, which max dye-equivalent concentration is on record?
**A.** inconclusive: 5.3e-09 M

**Q.** With C=CCn1c(SCc2nc3ccccc3[nH]2)nnc1-c1ccncc1 as the compound, how does the max dye-equivalent concentration read?
**A.** active: 1.5e-08 M

**Q.** With Cc1noc(NS(=O)(=O)c2ccc(NC(=O)COc3ccccc3)cc2)c1C as the compound, how does the max dye-equivalent concentration read?
**A.** inconclusive: 3.8e-09 M

**Q.** Which max dye-equivalent concentration does the source give for CCOC(=O)c1c(C)n(C)c2cc(OCCN(CC)CC)ccc12 here?
**A.** inconclusive: 1.1e-09 M

**Q.** With Cc1cc(=O)oc(C)c1C(=O)NCCN1CCOCC1 as the compound, how does the max dye-equivalent concentration read?
**A.** inactive

**Q.** Which max dye-equivalent concentration does the source give for Cc1ccc(CNC(=O)c2cn(C3CCCC3)c(=O)c3c2c2ccccc2n3C)o1 here?
**A.** active: 4.7e-08 M

**Q.** With CCN(CC)c1ccc(-c2nn3c(-c4cccnc4)nnc3s2)cc1 as the compound, how does the max dye-equivalent concentration read?
**A.** active: 1.4e-07 M

**Q.** For CC(C)NC(=O)CCCc1cn(C)c2ccccc12, which max dye-equivalent concentration is on record?
**A.** inconclusive: 1.2e-09 M

**Q.** With Cc1cccc(N(C)C(=O)c2cc3cc4ccc(C)cc4nc3o2)c1 as the compound, how does the max dye-equivalent concentration read?
**A.** inconclusive: 1.2e-09 M

**Q.** For Cc1ccc(C)c(Cn2c(=O)c3c(nc4n3CCN4Cc3ccco3)n(C)c2=O)c1, which max dye-equivalent concentration is on record?
**A.** inconclusive: 2.1e-09 M

**Q.** With CC(=C1C(=O)c2ccccc2C1=O)N1CCc2ccccc2C1 as the compound, how does the max dye-equivalent concentration read?
**A.** inconclusive: 1.1e-09 M

**Q.** For CN(C)S(=O)(=O)N(CC(=O)Nc1ccccc1F)c1ccccc1, which max dye-equivalent concentration is on record?
**A.** inconclusive: 2.2e-09 M

**Q.** With CCOc1ccc(-c2cc(C(=O)N3CCN(c4ccccn4)CC3)c3ccccc3n2)cc1 as the compound, how does the max dye-equivalent concentration read?
**A.** inconclusive: 9.8e-09 M

**Q.** With O=C(O)c1ccc([N+](=O)[O-])c(P(=O)(O)O)c1 as the compound, how does the max dye-equivalent concentration read?
**A.** inactive

**Q.** Which max dye-equivalent concentration does the source give for O=C(COC(=O)c1cc(S(=O)(=O)N2CCOCC2)ccc1O)NCC1CCCO1 (stereo not given) here?
**A.** active: 1.2e-08 M

**Q.** With Cc1nn(-c2ccccc2)c2sc(C(=O)c3c(N)n(C)c(=O)n(C)c3=O)cc12 as the compound, how does the max dye-equivalent concentration read?
**A.** active: 7.1e-08 M

**Q.** Which max dye-equivalent concentration does the source give for CN1CCN(S(=O)(=O)c2ccc(-c3noc(C4CCN(S(C)(=O)=O)CC4)n3)cc2)CC1 here?
**A.** inconclusive: 1.4e-09 M

**Q.** For CCOC(=O)COc1ccc2c3c(c(=O)oc2c1C)CCC3, which max dye-equivalent concentration is on record?
**A.** inactive

**Q.** Which max dye-equivalent concentration does the source give for CSc1nc(N)c2ncn([C@@H]3O[C@@H](COP(=O)(O)OP(=O)(O)O)[C@@H](O)[C@H]3O)c2n1 here?
**A.** inactive

**Q.** With COc1cccc(NC(=O)N2CCN(c3cccc(C)c3C)CC2)c1 as the compound, how does the max dye-equivalent concentration read?
**A.** inconclusive: 1.3e-09 M

**Q.** For CCOC(=O)C1=C(C)NC(C)=C(C(=O)OCC)C1C1=COCCO1, which max dye-equivalent concentration is on record?
**A.** inconclusive: 2.9e-09 M

**Q.** With CCN1CCN(C(=O)c2nn(-c3ccc(OC)cc3)c(=O)c3c2c2ccccc2n3C)CC1 as the compound, how does the max dye-equivalent concentration read?
**A.** inconclusive: 9.7e-09 M

**Q.** With Clc1ccc(NCc2nncn2-c2ccccc2)cc1 as the compound, how does the max dye-equivalent concentration read?
**A.** inconclusive: 2.5e-09 M

**Q.** For Oc1ccccc1-c1nc(NCC2CCCO2)c2ccccc2n1 (stereo not given), which max dye-equivalent concentration is on record?
**A.** inactive

**Q.** For O=C(O)c1cccc(OCc2ccccc2Cl)c1, which max dye-equivalent concentration is on record?
**A.** active: 1.9e-08 M

**Q.** With O=C(C1CSC2(c3ccc(F)cc3)CCC(=O)N12)N1CCCCCC1 (stereo not given) as the compound, how does the max dye-equivalent concentration read?
**A.** inactive

**Q.** Which max dye-equivalent concentration does the source give for C=CCSc1n[nH]c(-c2ccc(OCCC)cc2)n1 here?
**A.** inconclusive: 9.5e-09 M

**Q.** With Cc1cc(C)n2nc(-c3cccnc3)nc2n1 as the compound, how does the max dye-equivalent concentration read?
**A.** inactive

**Q.** With COc1ccc(Cn2c3nc4ccccc4nc3c3c(=O)n(Cc4ccco4)cnc32)cc1 as the compound, how does the max dye-equivalent concentration read?
**A.** active: 4e-08 M

**Q.** For CCOC(=O)c1cc(S(=O)(=O)N2CCN(C(=O)OCC)CC2)cn1C, which max dye-equivalent concentration is on record?
**A.** inactive

**Q.** With CCOC(=O)c1cnc(-n2nc(C)cc2C)nc1NC as the compound, how does the max dye-equivalent concentration read?
**A.** inactive

**Q.** Which max dye-equivalent concentration does the source give for Cc1cc(C)n2nc(NCc3cccc(Br)c3)nc2n1 here?
**A.** inconclusive: 3.5e-09 M

**Q.** With Cc1sc2ncnc(-n3cnc4ccccc43)c2c1C as the compound, how does the max dye-equivalent concentration read?
**A.** inconclusive: 4.7e-09 M

**Q.** With Cc1onc(-c2c(F)cccc2Cl)c1C(=O)Nc1cccc2nsnc12 as the compound, how does the max dye-equivalent concentration read?
**A.** active: 5.3e-07 M
